Measured values reported in paper PMC12631243.
Results are given in words; binding and its absence hold for the method and conditions named. In cells and extracts the contact can be indirect.

Protein sequences, listed by entry. Tags and fused reporters are not part of them.
UniProt Q9Z2X8: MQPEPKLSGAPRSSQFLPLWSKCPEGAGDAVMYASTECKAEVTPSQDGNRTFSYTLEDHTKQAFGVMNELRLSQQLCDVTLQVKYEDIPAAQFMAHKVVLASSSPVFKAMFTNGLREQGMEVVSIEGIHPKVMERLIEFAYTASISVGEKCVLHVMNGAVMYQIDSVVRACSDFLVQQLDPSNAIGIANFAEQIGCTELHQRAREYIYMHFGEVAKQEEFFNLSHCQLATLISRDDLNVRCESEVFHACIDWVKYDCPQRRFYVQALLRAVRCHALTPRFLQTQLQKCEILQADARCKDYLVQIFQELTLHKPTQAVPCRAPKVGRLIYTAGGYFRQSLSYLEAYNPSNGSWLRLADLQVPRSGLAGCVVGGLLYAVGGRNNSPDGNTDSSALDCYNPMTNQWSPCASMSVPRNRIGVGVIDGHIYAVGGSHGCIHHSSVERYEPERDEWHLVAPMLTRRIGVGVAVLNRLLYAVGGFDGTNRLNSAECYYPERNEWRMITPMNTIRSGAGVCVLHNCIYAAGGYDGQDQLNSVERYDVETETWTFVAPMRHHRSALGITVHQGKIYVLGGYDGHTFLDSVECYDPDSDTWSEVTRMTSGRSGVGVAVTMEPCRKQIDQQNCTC

Experiments:
Assay in all cases: co-IP; Pierce Crosslink Magnetic IP/Co-IP Kit; antibody cross-linked to magnetic beads with DSS, incubated with cell lysate for 2 hours at room temperature, eluate detected by western blotting; lysate of atRAL-loaded 661W cells; which protein was precipitated is not told
[1] = target: T1, nuclear factor-erythroid 2-related factor-2 (NRF2) (mouse (endogenous in 661W)) (UniProt Q60795)
T1 sequence: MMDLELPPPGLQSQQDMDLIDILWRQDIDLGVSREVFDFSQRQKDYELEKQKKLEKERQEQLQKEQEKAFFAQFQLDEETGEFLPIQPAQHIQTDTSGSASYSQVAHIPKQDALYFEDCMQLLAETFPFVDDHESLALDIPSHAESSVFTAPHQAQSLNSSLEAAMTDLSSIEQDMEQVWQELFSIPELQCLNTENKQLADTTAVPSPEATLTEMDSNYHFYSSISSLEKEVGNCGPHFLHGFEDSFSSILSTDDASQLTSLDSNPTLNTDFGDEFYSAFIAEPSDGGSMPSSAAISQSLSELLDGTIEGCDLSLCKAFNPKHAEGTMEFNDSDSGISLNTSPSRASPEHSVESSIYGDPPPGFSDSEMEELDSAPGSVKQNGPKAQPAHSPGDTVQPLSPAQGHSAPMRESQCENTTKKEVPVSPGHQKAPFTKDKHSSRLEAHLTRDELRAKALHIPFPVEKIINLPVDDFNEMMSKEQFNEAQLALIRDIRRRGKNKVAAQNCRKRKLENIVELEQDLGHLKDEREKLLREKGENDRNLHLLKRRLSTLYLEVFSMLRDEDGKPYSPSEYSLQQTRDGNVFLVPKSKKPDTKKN

[2] = target: T2, heme oxygenase-1 (HO-1) (mouse (endogenous in 661W)) (UniProt P14901)
T2 sequence: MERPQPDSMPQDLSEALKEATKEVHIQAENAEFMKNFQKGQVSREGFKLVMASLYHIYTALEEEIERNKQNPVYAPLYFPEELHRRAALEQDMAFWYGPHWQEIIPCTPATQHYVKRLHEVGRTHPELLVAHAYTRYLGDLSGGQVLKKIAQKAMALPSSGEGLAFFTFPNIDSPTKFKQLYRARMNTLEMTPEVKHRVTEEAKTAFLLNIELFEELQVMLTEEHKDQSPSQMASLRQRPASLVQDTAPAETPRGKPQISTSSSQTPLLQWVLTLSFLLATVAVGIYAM

[3] = target: Kelch-like ECH-associated protein 1 (KEAP1) (mouse (endogenous in 661W)) (UniProt Q9Z2X8)

Measured: binding

B1: GSDME-N (N-terminal fragment of gasdermin E) (domain or fragment, UniProt Q9Z2D3 1-270)
chain: MFAKATRNFLKEVDAGGDLISVSHLNDSDKLQLLSLVTKKKRYWCWQRPKYQILSATLEDVLTEGHCLSPVVVESDFVKYESKCENHKSGAIGTVVGKVKLNVGGKGVVESHSSFGTLRKQEVDVQQLIQDAVKRTVNMDNLVLQQVLESRNEVLCVLTQKIMTTQKCVISEHVQSEETCGGMVGIQTKTIQVSATEDGTVTTDTNVVLEIPAATTIAYGIMELFVKQDGQFEFCLLQGKHGGFEHERKLDSVYLDPLAYREFAFLDMLD
no binding: [1] | [2] | [3]
